Values of other authors as cited in patent publication US20150182479A1, “Method of delivering agmatine for medical treatment” (TOPAZ VENTURES, INC., priority 2013, published 2015).

Test system: mouse
Conditions: for effect on the SSRI-induced rise of brain agmatine levels: mice exposed to FST

Compound | effect on the SSRI-induced rise of brain agmatine levels | concentration of agmatine in brain compared to saline control (mice pretreated and exposed to FST)
N=C(N)NCCC[C@@H](N)C(=O)O [D-arginine] | completely blocked | 
CCC1(C2=NCCN2)Cc2ccccc2O1 (stereo not shown) [efaroxan] | but not | 
c1ccc2c(c1)OCC(C1=NCCN1)O2 (stereo not shown) [idazoxan] | but not | 
CN(C)CCCN1c2ccccc2CCc2ccccc21 [imipramine] |  | but not
